According to publication PMC9489540:
Results are given in words; binding and its absence hold for the method and conditions named. Binding seen in cells or lysates may run through a third protein. Some binding calls cover weakened binding; strength is not graded here. Tags and fused reporters may be left off the sequences shown.

Target: T1, His-TRAF2 and Flag-TRAF2 (two differently tagged copies of TRAF2), Q12933
T1 chain: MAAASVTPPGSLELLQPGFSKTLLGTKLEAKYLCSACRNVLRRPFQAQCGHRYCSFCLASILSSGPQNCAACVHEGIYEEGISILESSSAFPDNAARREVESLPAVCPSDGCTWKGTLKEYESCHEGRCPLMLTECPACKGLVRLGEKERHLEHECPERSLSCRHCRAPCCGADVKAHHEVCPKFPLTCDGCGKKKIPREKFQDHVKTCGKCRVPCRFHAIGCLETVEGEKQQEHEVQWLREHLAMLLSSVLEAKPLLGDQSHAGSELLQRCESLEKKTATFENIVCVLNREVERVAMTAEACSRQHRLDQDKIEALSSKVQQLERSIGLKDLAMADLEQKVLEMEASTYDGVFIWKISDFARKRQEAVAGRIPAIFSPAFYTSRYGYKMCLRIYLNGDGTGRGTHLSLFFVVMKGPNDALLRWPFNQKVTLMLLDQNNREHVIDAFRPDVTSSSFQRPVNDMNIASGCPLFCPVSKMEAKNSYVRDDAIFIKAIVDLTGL
Experiment: co-IP; His-TRAF2 with Flag-TRAF2, cells with or without circ-0110634 up-regulation; cell type and bait not stated; western blot
Details: remark: other sources report otherwise

binding: binds
B1: His-TRAF2 and Flag-TRAF2 (two differently tagged copies of TRAF2), Q12933 1-501 (protein)
chain: T1 chain
